In doi:10.1101/487322 one finds binding data, which are given here for one molecule.

No constants are given. Whether binding was seen depends on the method and setting. Some entries that bind do so weakly or less than the wild type.

This assay deals with Turnip crinkle virus coat protein (P38) (Turnip crinkle virus) (UniProt P06663). In words: native gel or EMSA. Background: A gel shift assay detects complexes by their altered migration in electrophoresis.

B1: Turnip crinkle virus coat protein (P38) (protein, UniProt P06663 1-351)
chain: MENDPRVRKFASDGAQWAIKWQKKGWSTLTSRQKQTARAAMGIKLSPVAQPVQKVTRLSAPVALAYREVSTQPRVSTARDGITRSGSELITTLKKNTDTEPKYTTAVLNPSEPGTFNQLIKEAAQYEKYRFTSLRFRYSPMSPSTTGGKVALAFDRDAAKPPPNDLASLYNIEGCVSSVPWTGFILTVPTDSTDRFVADGISDPKLVDFGKLIMATYGQGANDAAQLGEVRVEYTVQLKNRTGSTSDAQIGDFAGVKDGPRLVSWSKTKGTAGWEHDCHFLGTGNFSLTLFYEKAPVSGLENADASDFSVLGEAAAGSVQWAGVKVAERGQGVKMVTTEEQPKGKWQALRI
With B1, the binding entry is recorded as “binds”.
